According to PubChem BioAssay AID493014 (National Center for Advancing Translational Sciences (NCATS), 2011):
The other results are listed elsewhere or left out. Shown are side measurements of this screen, not its main read-out; they come without a call. Compounds called inactive in the main read-out are mostly missing here. Words in brackets tell the shape of the fitted curve; partial curves, single points and poor fits give uncertain potencies.

Assay: qHTS Assay to Find Inhibitors of Chronic Active B-Cell Receptor Signaling
Conditions: ABC-DLBCL IkBa-CBG/CBR reporter, luminescence ratio (green luciferase fused to IkBa over red control in TMD8 lymphoma cells), 4 h
Procedure, shortened: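 Concentration-response series (up to 46 uM) were applied to TMD8 dual-reporter cells for 4 h at 37C with doxycycline. Green/red ratio, after filter-overlap correction, defined %Activity; red signal alone was normalised to basal cells and zero luminescence.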

[1] = measured here: CBR red luminescence, cell number
[2] = measured here: IkBa-CBG green luminescence

COc1ccccc1NC(=S)N(CCc1c(C)[nH]c2ccccc12)Cc1cccs1
AC50 [1]: 3.26 µM [rising, single point]

CC(=O)Oc1ccc(N2C(=O)CC(N3CCOCC3)C2=O)cc1 (centres undefined)
AC50 [1]: 14.1 µM [falling, single point]

COc1cccc(CC(=O)Nc2nc(-c3ccc(OC)c(OC)c3)cs2)c1
AC50 [1]: 35.5 µM [falling, single point]

Cc1c(C(=O)Nc2ccc3c(c2)OCCO3)oc2ccc(Br)cc12
AC50 [1]: 29.1 µM [falling, partial curve, poor fit]

O=C(CSc1nnc(SCc2ccc(Cl)cc2)s1)c1ccc2c(c1)OCO2
AC50 [1]: 3.26 µM [rising, partial curve, poor fit]

O=C(NCc1ccccc1)c1nc(S(=O)(=O)Cc2ccccc2)ncc1Cl
AC50 [1]: 8.91 µM [falling, partial curve, poor fit]
AC50 [2]: 12.6 µM [rising, single point]

CCCCNCCCOc1cccc(Cl)c1Cl
AC50 [1]: 4.61 µM [falling, partial curve, poor fit]

Cc1cc(C(=O)N/N=C/c2ccc([N+](=O)[O-])o2)c(C)o1
AC50 [1]: 22.4 µM [falling, single point]

COc1cccc(-n2c(C)nn(CCOc3ccccc3)c2=O)c1
AC50 [1]: 35.5 µM [rising, single point]

O=C(NCCc1ccccc1)c1ccccc1F
AC50 [1]: 12.6 µM [falling, single point]

Cc1cccc(NC(=O)C(C)Oc2ccccc2C)n1 (centres undefined)
AC50 [1]: 29.1 µM [falling, single point]

C/C(=N\Nc1nncc2ccccc12)c1ccc(Cl)c([N+](=O)[O-])c1
AC50 [1]: 10 µM [falling, partial curve, poor fit]

COc1ccccc1N=Nc1c(O)[nH]c2ccc(Br)cc12
AC50 [1]: 12.6 µM [falling, partial curve, poor fit]

CC1=C(C(N)=O)C(c2ccc(C)o2)C(C(N)=O)=C(C)N1
AC50 [1]: 0.517 µM [falling, full curve, poor fit]

CC[C@]12c3[nH]c4cc(CCC(=O)N(C)C)ccc4c3CCN1C(=O)[C@@H](CC(=O)NCCC1=CCCCC1)C[C@@H]2C(=O)N1CCN(C(=O)C2CC2)CC1
AC50 [1]: 10.3 µM [rising, partial curve]

Cc1cc2c(NCCc3ccccc3)ncnc2s1
AC50 [1]: 2.82 µM [rising, single point]

COc1ccc(C(O)(C(C)C)C(CN2CCOCC2)c2ccc(Cl)cc2)cc1 (centres undefined)
AC50 [1]: 4.47 µM [falling, full curve]

COC(=O)c1ccc(NC(=O)CCC(=O)c2ccc(F)cc2)cc1
AC50 [1]: 0.282 µM [rising, full curve, poor fit]

CCCCNC(=O)N(O)C1N(/N=C/c2cccnc2)C(=S)SC1(C)C (centres undefined)
AC50 [1]: 2 µM [rising, full curve, poor fit]

O=C(NCCCN1CCOCC1)c1cccs1
AC50 [1]: 5.17 µM [rising, single point]

COc1ccc(Cl)cc1S(=O)(=O)n1nnc2ccccc21
AC50 [1]: 35.5 µM [falling, single point]

Cc1cccc2sc(NC(=O)CN3C(=O)NC4(CCCC4)C3=O)nc12
AC50 [1]: 7.94 µM [falling, partial curve, poor fit]

COc1ccc(-c2cc3nc(C4CCN(C(=O)OC(C)(C)C)CC4)c(C(=O)O)cn3n2)cc1
AC50 [1]: 7.94 µM [rising, partial curve, poor fit]

O=c1oc(-c2cccc([N+](=O)[O-])c2)nc2ccccc12
AC50 [1]: 2.82 µM [falling, full curve]

Cc1cc(N2CCOCC2)n2ncc(-c3ccc(Cl)cc3)c2n1
AC50 [1]: 0.0891 µM [falling, full curve, poor fit]

Cc1ccc(S(=O)(=O)NC(C(=O)Oc2cc3oc(=O)cc(C)c3cc2Cl)C(C)C)cc1 (centres undefined)
AC50 [1]: 25.1 µM [falling, single point]

CCOC(=O)c1ccc(NC(=O)Nc2ccc(F)cc2)cc1
AC50 [1]: 10.3 µM [falling, partial curve, poor fit]

CCNC(=S)N/N=C/c1cccs1
AC50 [1]: 29.1 µM [rising, single point]
AC50 [2]: 18.4 µM [falling, single point]

COc1ccccc1OCC(=O)Nc1ncc(C)s1
AC50 [1]: 13 µM [falling, partial curve, poor fit]

COc1ccc(/C=C2\SC(=S)N(CCC(=O)NCCCn3ccnc3)C2=O)cc1
AC50 [1]: 2 µM [falling, full curve]

CCCNS(=O)(=O)c1ccc(OCC(=O)NCc2ccco2)cc1
AC50 [1]: 29.1 µM [rising, single point]

Cc1ccc2nc(NC(=O)CCCc3nc4ccccc4s3)sc2c1
AC50 [1]: 29.1 µM [falling, single point]
